Where a name gives a salt, the structure may show the parent alone.
Experiments:
[1] = micronized active ingredient as used in Example 3
[2] = Uniformity of distribution of the active ingredients in the powder blend by HPLC; type: physicochemical; conditions: Example 3 powder formulation; 10 samples from different parts of the blend; mean value±RSD

SMILES: COc1ccc(CC(C)NCC(O)c2ccc(O)c(NC=O)c2)cc1 (stereo not shown) [FF, formoterol fumarate dihydrate]
- d(v0.1) [1]: 0.9 micron
- d(v0.5) [1]: 2.3 micron
- d(v0.9) [1]: 4.2 micron
- Uniformity of distribution [2]: 100.5 (±1.5)
